# Experimental data as given in PubChem BioAssay (Tox21).
# Amino acid sequences for entries named in this document (tags omitted). A change or cut given only in a name is not applied to a line headed by its entry.
# UniProt P11229: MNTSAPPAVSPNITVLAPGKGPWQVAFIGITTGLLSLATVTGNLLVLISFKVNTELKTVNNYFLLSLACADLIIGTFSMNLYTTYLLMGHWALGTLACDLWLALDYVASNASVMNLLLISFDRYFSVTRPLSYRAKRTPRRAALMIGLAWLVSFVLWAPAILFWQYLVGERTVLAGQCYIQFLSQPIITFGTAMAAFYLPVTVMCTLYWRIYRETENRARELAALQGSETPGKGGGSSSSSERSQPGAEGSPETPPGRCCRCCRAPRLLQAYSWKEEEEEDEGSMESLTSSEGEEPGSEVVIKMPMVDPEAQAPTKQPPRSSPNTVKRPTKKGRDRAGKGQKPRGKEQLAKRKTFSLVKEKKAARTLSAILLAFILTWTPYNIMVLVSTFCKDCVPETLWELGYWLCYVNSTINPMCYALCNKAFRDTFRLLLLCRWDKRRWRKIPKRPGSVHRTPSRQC
# UniProt P14416, whole entry, looked up: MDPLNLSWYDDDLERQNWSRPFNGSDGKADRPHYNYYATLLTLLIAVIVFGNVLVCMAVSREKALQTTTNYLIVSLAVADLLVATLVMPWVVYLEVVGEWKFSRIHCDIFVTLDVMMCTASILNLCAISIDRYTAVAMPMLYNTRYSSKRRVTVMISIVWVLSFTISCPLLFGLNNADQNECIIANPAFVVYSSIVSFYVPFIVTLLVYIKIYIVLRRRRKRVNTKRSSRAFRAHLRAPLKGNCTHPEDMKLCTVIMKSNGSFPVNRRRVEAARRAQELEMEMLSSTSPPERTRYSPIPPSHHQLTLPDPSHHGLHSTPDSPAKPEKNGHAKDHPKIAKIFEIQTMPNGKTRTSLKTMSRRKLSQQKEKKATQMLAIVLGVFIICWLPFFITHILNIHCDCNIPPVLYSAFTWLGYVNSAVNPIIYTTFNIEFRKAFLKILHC
# “And” between values parts separate entries of the source, which are not always exact repeats. Equal values may be shown once. The shares of active, inactive and inconclusive entries below differ from those in the screen. For some assays here: Potencies of inconclusive entries are doubtful fits and often do not repeat. More than one record can exist for a structure, and the calls need not agree. The source made the active and inactive calls. Unless noted, calls follow the shape of the full dose curve.
# Columns and labels:
# [1] = p53 small molecule agonists, cell-based qHTS assay: qHTS cell viability counter screen (AID 1963581); also: nearly all actives have a fitted effect of over 45% in size
# In short: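 Luminescence from CellTiter-Glo, reflecting ATP content, serves as the cytotoxicity measure; it is taken after the 2 h reporter substrate step in HCT-116 p53RE-bla cells dosed for 16 h at 37 C.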
# [2] = molecular target: Muscarinic acetylcholine receptor M1 (Homo sapiens) (UniProt P11229); assay: Cholinergic receptor muscarinic 1 (CHRM1) small molecule antagonists, cell-based qHTS assay (AID 1963588); also: nearly all actives have a fitted effect of over 40% in size
# In short: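 Compounds were tested at 15 concentrations in three independent runs. Dye-loaded CHRM1-CHO cells were exposed 5 min at room temperature before stimulation by acetylcholine added at 50nM. Intracellular calcium was read kinetically on FDSS for 3 min.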
# [3] = cAMP Responsive Elements (CRE) small molecule antagonists, cell-based qHTS assay (AID 1963591; active = well fitted inhibition curve with a large enough effect in the signal ratio in the repeat runs, not every such curve was filed as active; inconclusive = weak or mixed curves, or effect the other way; the % refers to the signal ratio; as to activity change, negative = inhibition: % is scaled to controls: 0 for no effect and ±100 for the full control effect); conditions: CRE-bla HEK293T, beta-lactamase FRET ratio; activity change, negative = inhibition: at 92.4 µM (top of the series) unless noted
# In short: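 Stimulation used NKH477 at a final 0.25 uM for 3 h in compound-treated CRE-bla HEK293T cells, seeded 18 h beforehand. Reporter activity was measured with LiveBLAzer B/G FRET substrate after 2 h at room temperature.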
# [4] = molecular target: Beta-2 adrenergic receptor (Homo sapiens) (UniProt P07550); assay: Adrenergic beta2 receptor (ADRB2) small molecule agonists, cell-based qHTS assay (AID 1963593); conditions: CHO-ADRB2 cells, cAMP HTRF, 30 min;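 as to activation: CHO cells stably overexpressing human ADRB2; % is scaled to controls: 0 for no effect and ±100 for the full control effect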
# In short: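 CHO cells stably over-expressing ADRB2 were plated overnight at 37C, then dosed with compounds plus a stimulation mix containing 100uM IBMX and 25uM Ro-20-1724 for 0.5hr at room temperature. cAMP was measured by HTRF competition, 1hr.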
# [5] = molecular target: D(2) dopamine receptor (Homo sapiens) (UniProt P14416); assay: Dopamine D2 receptor (DRD2) small molecule antagonists, cell-based qHTS assay (AID 1963595; active = well fitted inhibition curve with a large enough effect in the signal ratio in the repeat runs, with a control signal flat; inconclusive = weak or mixed curves, or effect the other way; the % refers to the signal ratio; as to activity change, negative = inhibition: % is scaled to controls: 0 for no effect and ±100 for the full control effect); conditions: HEK293-DRD2 cAMP HTRF antagonist mode; activity change, negative = inhibition: at 92.4 µM (top of the series) unless noted
# In short: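 HTRF cAMP read-out at 665 and 620 nm emission (340 nm excitation). Antagonist mode: compounds were tested against 12 nM quinpirole in DRD2-HEK293 cells, with 200 nM NKH477 raising cAMP and 0.1 mM Ro20-1724 blocking its breakdown.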
# [6] = cAMP Responsive Elements (CRE) small molecule agonists, cell-based qHTS assay (AID 1963590); conditions: CRE-bla HEK293T, beta-lactamase FRET ratio, 3 h; activation: at 92.4 µM (top of the series) unless noted
# In short: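 Compound exposure lasted 3 h at 37 C/5% CO2 in CRE-bla HEK 293T cells grown in assay medium with 10% dialyzed FBS and 25 mM HEPES. Reporter signal came from LiveBLAzer B/G FRET substrate, 2 h, room temperature.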
# [7] = molecular target: D(2) dopamine receptor (Homo sapiens) (UniProt P14416); assay: Dopamine D2 receptor (DRD2) small molecule agonists, cell-based qHTS assay (AID 1963594); conditions: HEK293-DRD2 cAMP HTRF, agonist mode, 30 min; activation: at 92.4 µM (top of the series) unless noted; also: nearly all actives have a fitted effect of over 35% in size; as to activation: % is scaled to controls: 0 for no effect and ±100 for the full control effect
# In short: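 cAMP accumulation in DRD2-HEK293 cells measured by HTRF after 1 h detection; compounds added 10 min before NKH477 (200nM […]) forskolin-analogue stimulation, 30 min at room temperature, with Ro20-1724 present at 0.1 mM final.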
# [8] = molecular target: Muscarinic acetylcholine receptor M1 (Homo sapiens) (UniProt P11229); assay: Cholinergic receptor muscarinic 1 (CHRM1) small molecule agonists, cell-based qHTS assay (AID 1963589); also: nearly all actives have a fitted effect of over 35% in size
# In short: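 Fluorescent calcium dye reports M1 activation in stably transfected CHO cells. Compounds, 15 concentrations, added after 1 h dye loading at 37 C; kinetic reading at 1 sec intervals.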
# [9] = molecular target: Beta-2 adrenergic receptor (Homo sapiens) (UniProt P07550); assay: Adrenergic beta2 receptor (ADRB2) small molecule antagonists, cell-based qHTS assay (AID 1963592); conditions: CHO-ADRB2 cells, isoproterenol-stimulated cAMP HTRF ratio, 0.5 h; activity change, negative = inhibition: at 92.4 µM (top of the series) unless noted; also: nearly all actives have a fitted effect of over 50% in size
# In short: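 Assay format: CHO-ADRB2 cells, 18-20hr seeding at 37C/5% CO2, then compound plus 1nM isoproterenol agonist mix for 0.5hr RT. Homogeneous time-resolved fluorescence cAMP detection after 1hr, expressed as 665/615 nm ratio.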
# [10] = activation: at 92.4 µM (top of the series) unless noted
# Potency is read from the fitted curve at half-maximal effect.
smiles,measurement,setting,value
CC(=O)SC[C@@H](Cc1ccccc1)C(=O)NCC(=O)OCc1ccccc1,Potency,[1],inactive
same,Potency,[2],"inconclusive: 0.0163 µM [inhibitor, full curve, poor fit]"
same,"activity change, negative = inhibition",[3],inconclusive: 0.908% [at 42.4 µM]
same,activation,[4]; [10],inconclusive: -49.6% [at 42.5 µM]
same,Potency,[5],inactive
C/C=C/c1ccc(OCC)c(O)c1,Potency,[1],inactive
same,Potency,[2],"inconclusive: 2.98 µM [inhibitor, partial curve, poor fit]"
same,Potency,[3],inactive
same,activation,[4]; [10],inconclusive: -36.3%
same,activation,[4]; at 92.4 µM (top of the series),inactive: -1.66%
CC1(C)CC(N=C=O)CC(C)(CN=C=O)C1 (stereo not drawn),Potency,[1],"inconclusive: 0.408 µM [rising, full curve]"
same,Potency,[2],"active: 17 µM and inconclusive: 667 nM [inhibitor, full curve, poor fit]"
same,Potency,[4]; [10],inactive
CC(=O)OC(C)(C)C,Potency,[1],inactive
same,Potency,[2],"inconclusive: 0.421 µM [inhibitor, single point]"
same,activation,[4]; [10],inconclusive: -29.5%
CCCN(CCC)S(=O)(=O)c1ccc(C(=O)O)cc1,Potency,[1],"inconclusive: 1.83 µM [cytotoxic, single point]"
same,Potency,[6],"inconclusive: 61.6 µM [rising, partial curve]"
same,Potency,[3],"inconclusive: 11.9 µM [rising, partial curve, poor fit]"
same,"activity change, negative = inhibition",[3],inconclusive: 7.8%
same,activation,[4]; at 42.5 µM (top of the series),inconclusive: 3.36%
same,activation,[4]; at 92.4 µM (top of the series),inconclusive: -51.6% and inactive: -39.7%
Cc1cc(Br)ccc1NC(=O)CCl,Potency,[1],inconclusive: 45.8 µM [cytotoxic]
same,Potency,[6],"inconclusive: 27.3 µM [rising, partial curve]"
same,Potency,[3],"inconclusive: 30.6 µM [fluorescent, partial curve]"
same,Potency,[4]; [10],inactive
C[C@H](CCC(=O)O)[C@H]1CC[C@H]2[C@@H]3C(=O)C[C@@H]4CC(=O)CC[C@]4(C)[C@H]3CC(=O)[C@]12C,Potency,[1],"inconclusive: 25.1 µM [rising, single point]"
same,Potency,[2],inactive
same,Potency,[6],"inconclusive: 29.8 µM [rising, partial curve, poor fit]"
same,"activity change, negative = inhibition",[3],inconclusive: 7.35% [at 42.4 µM]
CC1=C2[C@H](/C=C(\C)C(=O)O)CC[C@@H](C)[C@H]2CC1,Potency,[1],"inconclusive: 47.5 µM [cytotoxic, single point]"
same,Potency,[2],"inconclusive: 30.9 µM [inhibitor, partial curve, poor fit]"
same,Potency,[6],"inconclusive: 31.8 µM [rising, partial curve]"
same,Potency,[4]; [10],"inconclusive: 5.65 µM [inhibitor, full curve, poor fit]"
same,Potency,[7],inactive
C=CC(=O)NCOCCCC,Potency,[1],"inconclusive: 11.9 µM [cytotoxic, single point]"
same,Potency,[2],inactive
same,Potency,[4]; [10],"inconclusive: 1.12 µM [inhibitor, single point]"
COC(=O)C1=C(C)NC(C)=C(C(=O)OC)C1c1ccccc1[N+](=O)[O-],Potency,[1],inactive
same,Potency,[6],"inconclusive: 30.7 µM [rising, partial curve]"
same,Potency,[3],inconclusive: 34.4 µM
same,"activity change, negative = inhibition",[3],inconclusive: -18.3% [at 42.4 µM]
same,Potency,[4]; [10],"inconclusive: 13.7 µM [inhibitor, full curve]"
same,activation,[4]; [10],inconclusive: 18.2% [at 42.5 µM]
same,Potency,[7],"inconclusive: 25.5 µM [falling, partial curve, poor fit]"
same,Potency,[5],active: 68.7 µM
CCC(=O)O[C@]1(C(=O)CCl)[C@@H](C)C[C@H]2[C@@H]3CCC4=CC(=O)C=C[C@]4(C)[C@@]3(F)[C@@H](O)C[C@@]21C,Potency,[1],"inconclusive: 12.6 µM [rising, single point]"
same,Potency,[6],"inconclusive: 29.8 µM [rising, partial curve, poor fit]"
same,"activity change, negative = inhibition",[3],inconclusive: 8.67% [at 42.4 µM]
same,Potency,[4]; [10],inactive
O=C(O)C1(C(=O)O)CCC1.[NH2-].[NH2-].[Pt+2],Potency,[1],"inconclusive: 0.316 µM [cytotoxic, partial curve, poor fit]"
same,Potency,[2],"inconclusive: 11.6 µM [inhibitor, single point]"
same,Potency,[8],"inconclusive: 10.7 µM [rising, single point]"
same,Potency,[3],inconclusive: 33.5 µM [activator]
same,activation,[4]; [10],inconclusive: -19.3% [at 42.5 µM]
CCCCCCCCCCCC(C)=O,Potency,[1],"inconclusive: 5.13 µM [cytotoxic, single point]"
same,Potency,[8],inactive
same,Potency,[9],inactive
same,Potency,[4]; [10],inactive
CC1COc2c(N3CCN(C)CC3)c(F)cc3c(=O)c(C(=O)O)cn1c23 (stereo not drawn),Potency,[1],inactive
same,Potency,[6],inconclusive: 26.6 µM
same,Potency,[3],inactive
same,Potency,[9],"inconclusive: 26.6 µM [falling, partial curve, poor fit]"
same,Potency,[4]; [10],"inconclusive: 11.9 µM [activator, partial curve, poor fit]"
same,activation,[7],inconclusive: -9.36% [at 42.5 µM]
CC(C)OC(=O)COc1ccc(Cl)cc1Cl,Potency,[1],inactive
same,Potency,[2],"inactive and inconclusive: 7.48 µM [inhibitor, partial curve, poor fit]"
same,activation,[4]; [10],inconclusive: -34.9% and inconclusive: 4.32%

# Part of the list above, reformatted:
smiles	measurement	setting	value
CC(=O)OC(C)(C)C	Potency	[1]	inactive
CC(C)OC(=O)COc1ccc(Cl)cc1Cl	Potency	[2]	inactive and inconclusive: 7.48 µM [inhibitor, partial curve, poor fit]

# Three entries picked at random from those above, as already listed:
smiles,measurement,setting,value
CC1=C2[C@H](/C=C(\C)C(=O)O)CC[C@@H](C)[C@H]2CC1,Potency,[6],"inconclusive: 31.8 µM [rising, partial curve]"
CC(=O)SC[C@@H](Cc1ccccc1)C(=O)NCC(=O)OCc1ccccc1,Potency,[2],"inconclusive: 0.0163 µM [inhibitor, full curve, poor fit]"
C=CC(=O)NCOCCCC,Potency,[2],inactive
